Results on 1 sequence are retold here after PMC5996148.

The other results are listed elsewhere or left out. For some assays here: The source does not settle which construct or isoform was used.

Some test systems named below: CDK6 (human); CDKN2B (human); CDKN2D (human); CEACAM6 (human); CEECAM1 (human); CENTB2 (human); CENTD2 (human); CEP290 (human); CFHR2 (human); CFHR3 (human); CFL2 (human); CGB (human); CHCHD3 (human); CHEK2 (human); CHN1 (human); CHRAC1 (human); CIAPIN1 (human).
Experiment in all cases: protein microarray (ProtoArray v5.0), streptavidin-Alexa Fluor 647
Common to all, as to settings: 3'-biotin; 20 mM Tris (pH 7.5), 5 mM MgCl2, 100 mM KCl, 0.1% Tween-20, A/T-rich and random oligonucleotide blockers; temperature not stated; high values mean tight binding

Experiment [1] has as its system CDK5 regulatory subunit-associated protein 3 (human).
The target of another experiment is T1, CHMP6 (UniProt Q96FZ7).
T1 sequence: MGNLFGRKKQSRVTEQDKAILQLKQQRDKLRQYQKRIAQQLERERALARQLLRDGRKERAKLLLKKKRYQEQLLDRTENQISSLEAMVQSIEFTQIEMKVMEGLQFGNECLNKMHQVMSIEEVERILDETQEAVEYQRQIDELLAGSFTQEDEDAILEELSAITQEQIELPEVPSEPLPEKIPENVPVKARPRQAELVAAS

Another experiment has as its target CINP (UniProt Q9BW66).

For the sequence “GGGAGGCTGAGGCAGG [G4-1 biotinylated (PQS2)]”, the binding signal in experiment [1] was -0.379 z-score; in the experiment on CDK6 (human), -0.346 z-score; in the experiment on CDKN2B (human), -0.319 z-score; with CDKN2D (human) it was -0.36 z-score; in the experiment with CEACAM6 (human), -0.353 z-score; with CEECAM1 (human), -0.283 z-score. In addition, the binding signal in the experiment with CENTB2 (human) is -0.246 z-score; in the experiment on CENTD2 (human), -0.346 z-score; in the experiment on CEP290 (human) it was -0.343 z-score; in the experiment with CFHR2 (human) it was -0.286 z-score; in the experiment with CFHR3 (human), -0.306 z-score; in the experiment with CFL2 (human), -0.298 z-score. Moreover, the binding signal in the experiment with CGB (human) was -0.321 z-score; in the experiment on CHCHD3 (human), -0.337 z-score; in the experiment with CHEK2 (human), -0.327 z-score; in the experiment with CHMP6, 7.01 z-score; in the experiment with CHN1 (human), -0.362 z-score; in the experiment with CHRAC1 (human), -0.336 z-score. Moreover, the binding signal with CIAPIN1 (human) was -0.33 z-score; with CINP, -0.32 z-score.
